From paper PMC7819943, “Rice protein-binding microarrays: a tool to detect cis-acting elements near promoter regions in rice”
Some of the results follow.

Biological target: T1, OsSMF1 (Oryza sativa, UniProt Q6ZLB0 1-436)
T1 sequence: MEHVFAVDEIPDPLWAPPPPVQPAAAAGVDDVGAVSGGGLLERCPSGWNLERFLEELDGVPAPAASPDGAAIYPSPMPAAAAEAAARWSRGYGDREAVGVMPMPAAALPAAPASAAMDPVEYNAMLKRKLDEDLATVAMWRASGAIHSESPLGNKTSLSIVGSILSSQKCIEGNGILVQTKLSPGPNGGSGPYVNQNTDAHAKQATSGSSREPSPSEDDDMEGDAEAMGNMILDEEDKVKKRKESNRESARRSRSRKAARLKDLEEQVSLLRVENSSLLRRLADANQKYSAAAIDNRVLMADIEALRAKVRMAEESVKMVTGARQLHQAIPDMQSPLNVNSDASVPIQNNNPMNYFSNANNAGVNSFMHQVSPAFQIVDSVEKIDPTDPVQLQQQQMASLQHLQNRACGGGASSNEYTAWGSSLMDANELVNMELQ
Experiment: protein-binding microarray (RPBM); PBS, 2% BSA, 51.3 ng/ul salmon testes DNA, 50 uM zinc acetate, 200 nM TF, 25 C, 1 h; high values mean tight binding
Conditions: protein: recombinant; tags: N-terminal polyhistidine and DsRed monomer fusion (pET32a); chain copies: 2; label: CyDye5-dUTP incorporated in the synthesized complementary strand; 3' TTTTT single-stranded linker to array surface; dsDNA, one strand shown
Outline: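 Binding signal here means per-feature fluorescence intensity in arbitrary units. The values were read on an Axon 4000B scanner after a custom Agilent array, double-stranded by primer extension with Cy5-dUTP, was incubated with 200 nM protein at 25 °C for 1 h in PBS with 2% BSA, salmon testes DNA and 50 µM zinc acetate, then washed. The proteins were transcription factors with an N-terminal polyhistidine tag and DsRed, expressed in E. coli BL21-CodonPlus and purified on Ni–NTA.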

Sequence	binding signal
AGAAGGTGGGGTTAGGGTCATGATGGTATGCTGAGCAGTGCGGAGTCACCTAGTGCAG	3300 fluorescence intensity (a.u.)
CGAGGAGGAGCAACACGATGACGCGACAGAGCGTGTAGGTCGGAGTCACCTAGTGCAG	4180 fluorescence intensity (a.u.)
CTCCTCGCCGTCACCTCGATCGGCCCGTCAATCTGTTCTCCGGAGTCACCTAGTGCAG	3170 fluorescence intensity (a.u.)
AAGAGACACCTCTCTTCTCTGTGTTGGCGCAGGGAAGGAGCGGAGTCACCTAGTGCAG	6120 fluorescence intensity (a.u.)
ATTTCCACGTCGTCTGTTATTTTGTGCTGCTTCTCTCTTGCGGAGTCACCTAGTGCAG	5250 fluorescence intensity (a.u.)
CGCGTCATTCCCTCCCGCTTACGTGTGCTGGGCCAAAGTACGGAGTCACCTAGTGCAG	6080 fluorescence intensity (a.u.)
TACATGTTAAATCGATTCCAGCTGCCAGCATAATCACATTCGGAGTCACCTAGTGCAG	3230 fluorescence intensity (a.u.)
TGACCTCTCCCATTAGCTCCGACGGTGACGAAGCAAGATGCGGAGTCACCTAGTGCAG	4650 fluorescence intensity (a.u.)
AAGAGATATCCTGTAATAGAGTCTGACTCTTACTCTATTTCGGAGTCACCTAGTGCAG	3440 fluorescence intensity (a.u.)
CAAATGTCGATTTGGTTGTGGACATGTCAATGCCGATCAACGGAGTCACCTAGTGCAG	50200 fluorescence intensity (a.u.)
CATTGGCACTATCTCTGGTTGGCAACCACGTAATTCCCTCCGGAGTCACCTAGTGCAG	5190 fluorescence intensity (a.u.)
CACATACGTTCTCCTCTCAACCAATCATCACTATTCTCCTCGGAGTCACCTAGTGCAG	3330 fluorescence intensity (a.u.)
GATGGACGCGTGAGTCGTGACGTTGCGAGTGGTGCGACTTCGGAGTCACCTAGTGCAG	7740 fluorescence intensity (a.u.)
CACTTATCCATCCGCTGACACCTGCACAAACAAACCAGTTCGGAGTCACCTAGTGCAG	4130 fluorescence intensity (a.u.)
ACAGGCATAGAGGCTGCTGACACACACCATCCGATCTGTCCGGAGTCACCTAGTGCAG	4990 fluorescence intensity (a.u.)
ATCTAGTTTTGGATATGACATGTCCTAGTATTATGAATCTCGGAGTCACCTAGTGCAG	3920 fluorescence intensity (a.u.)
GGTTTGTAAACTGGCAGCGTAGACATGCTTTCCTGTGTTGCGGAGTCACCTAGTGCAG	5570 fluorescence intensity (a.u.)
TCCTTCGTCTCGACTCCAGTTGGGGAGGCATTCTTTTCTTCGGAGTCACCTAGTGCAG	3470 fluorescence intensity (a.u.)
TGTTCCTCCACGTCGCTCCGCCGCTCCGCCCGCCTTGCTTCGGAGTCACCTAGTGCAG	5090 fluorescence intensity (a.u.)
TTGGTGTAGTACTTCTCGTACACGTTGTTGCTTGTTGCCACGGAGTCACCTAGTGCAG	3260 fluorescence intensity (a.u.)
TTCCTCATCGGCAACGGTGCTCGGGCTGTGGCAGGTGACACGGAGTCACCTAGTGCAG	3820 fluorescence intensity (a.u.)

A second format for some results above.

| Sequence | binding signal |
| --- | --- |
| GGTTTGTAAACTGGCAGCGTAGACATGCTTTCCTGTGTTGCGGAGTCACCTAGTGCAG | 5570 fluorescence intensity (a.u.) |
| TCCTTCGTCTCGACTCCAGTTGGGGAGGCATTCTTTTCTTCGGAGTCACCTAGTGCAG | 3470 fluorescence intensity (a.u.) |
| TGTTCCTCCACGTCGCTCCGCCGCTCCGCCCGCCTTGCTTCGGAGTCACCTAGTGCAG | 5090 fluorescence intensity (a.u.) |
| TTGGTGTAGTACTTCTCGTACACGTTGTTGCTTGTTGCCACGGAGTCACCTAGTGCAG | 3260 fluorescence intensity (a.u.) |

Further entries

Sequence	binding signal
GATGATTGCCTGTGTGCCCTTGGTACTTGTGTGGAAGGTGCGGAGTCACCTAGTGCAG	3500 fluorescence intensity (a.u.)
AAGGACAAATTCAGCCCAACTTGGTAGTGGGCCTCCTTTTCGGAGTCACCTAGTGCAG	18000 fluorescence intensity (a.u.)
GATAATTCTTGGTCATCAGTGCTTCGGCACGGTCAGCCGCCGGAGTCACCTAGTGCAG	3190 fluorescence intensity (a.u.)
AGCTCACTCTCTAGCTCCTTGAGGTGCACCCTTAGTTGTTCGGAGTCACCTAGTGCAG	23700 fluorescence intensity (a.u.)
GCTGGACGCGTGCCTGCGCCCCGTCGACCACGTCAAGGCGCGGAGTCACCTAGTGCAG	5050 fluorescence intensity (a.u.)
TGGGCATTTGATGAAAACATGATCACCGAAAATCATTTAGCGGAGTCACCTAGTGCAG	4320 fluorescence intensity (a.u.)
CGAGTCCAACGTGCCTAGCTCCTATCCAACTTCTTCACCGCGGAGTCACCTAGTGCAG	4900 fluorescence intensity (a.u.)
TATCTCTCTTTCTCTTTCTTCGTGTCGTCGACTTCGCATGCGGAGTCACCTAGTGCAG	3380 fluorescence intensity (a.u.)
TTTCTCCAAAAGCGTTGATGTCGCACGTGAGCCACGTCAGCGGAGTCACCTAGTGCAG	34800 fluorescence intensity (a.u.)
ATGCGATTCGATATGATCTGTACCGAACACTGTAGCAAGCCGGAGTCACCTAGTGCAG	3450 fluorescence intensity (a.u.)
GGTAGTAGTCGTAGTAGTAGACCAGGTGGACGCGTGTCAGCGGAGTCACCTAGTGCAG	6350 fluorescence intensity (a.u.)
GCCGCGCGTGATCGATCACGCGTTAGCTTTCTAGCTAGTTCGGAGTCACCTAGTGCAG	3820 fluorescence intensity (a.u.)
GTGTGCCTCGAGTGGTGGTGGTACGAGGTGATGATCCTGCCGGAGTCACCTAGTGCAG	22700 fluorescence intensity (a.u.)
AGGCCCATTTAAGCCCACGTTTCTCTTGTCCTCAACCCCACGGAGTCACCTAGTGCAG	3220 fluorescence intensity (a.u.)
TGTAGATTGCTCGTAGGCCATAGTGACGCCAACCCTCGCCCGGAGTCACCTAGTGCAG	5120 fluorescence intensity (a.u.)
AAATACTATCTCGCTGAGTAGACTGAGGCACGCGTAGAAACGGAGTCACCTAGTGCAG	3870 fluorescence intensity (a.u.)
CCGAGAGGTGGGGTGTGTGTCACTCACGCCGCGCGCTGGGCGGAGTCACCTAGTGCAG	4790 fluorescence intensity (a.u.)
TTAACTATTTGCCACCCATATGTCTATGACACGTGGGTCTCGGAGTCACCTAGTGCAG	9590 fluorescence intensity (a.u.)
ATGTTAGTAAATTCGCGTCGGATTGCTTCTTATCAGAGCCCGGAGTCACCTAGTGCAG	3200 fluorescence intensity (a.u.)
AATACTGGTCAATAAAATTTCCAAGATCAAAATAAACGTACGGAGTCACCTAGTGCAG	25000 fluorescence intensity (a.u.)
CAGCTGACTTATAGCCTACTATACCTGCTGTACCTGCTGGCGGAGTCACCTAGTGCAG	3340 fluorescence intensity (a.u.)
